In publication doi:10.1101/2025.02.28.640839:
No constants are given. Whether binding was seen depends on the method and setting. Binding can be weak; no strength is given.

Biological target: Protein Disulfide Isomerase (human (endogenous in A549, HT29, U251))
Assay: drug resin affinity chromatography

- binding: binds
B1: ALDH1A1 (protein, UniProt P00352 1-501)
chain: MSSSGTPDLPVLLTDLKIQYTKIFINNEWHDSVSGKKFPVFNPATEEELCQVEEGDKEDVDKAVKAARQAFQIGSPWRTMDASERGRLLYKLADLIERDRLLLATMESMNGGKLYSNAYLNDLAGCIKTLRYCAGWADKIQGRTIPIDGNFFTYTRHEPIGVCGQIIPWNFPLVMLIWKIGPALSCGNTVVVKPAEQTPLTALHVASLIKEAGFPPGVVNIVPGYGPTAGAAISSHMDIDKVAFTGSTEVGKLIKEAAGKSNLKRVTLELGGKSPCIVLADADLDNAVEFAHHGVFYHQGQCCIAASRIFVEESIYDEFVRRSVERAKKYILGNPLTPGVTQGPQIDKEQYDKILDLIESGKKEGAKLECGGGPWGNKGYFVQPTVFSNVTDEMRIAKEEIFGPVQQIMKFKSLDDVIKRANNTFYGLSAGVFTKDIDKAITISSALQAGTVWVNCYGVVSAQCPFGGFKMSGNGRELGEYGFHEYTEVKTVTVKISQKNS
